In article doi:10.1101/2023.02.07.527589:
These are yes or no findings as the source states them, for the method shown. In cells and extracts the contact can be indirect. Some entries that bind do so weakly or less than the wild type.

The chains behind the UniProt entries cited, without tags or fusion partners. Residues count along the entry.
UniProt Q15468, residues 375-510: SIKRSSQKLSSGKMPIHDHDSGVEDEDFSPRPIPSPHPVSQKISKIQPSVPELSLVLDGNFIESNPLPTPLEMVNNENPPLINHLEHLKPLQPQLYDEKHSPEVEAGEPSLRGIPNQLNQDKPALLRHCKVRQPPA
UniProt Q9HC77, residues 895-1338: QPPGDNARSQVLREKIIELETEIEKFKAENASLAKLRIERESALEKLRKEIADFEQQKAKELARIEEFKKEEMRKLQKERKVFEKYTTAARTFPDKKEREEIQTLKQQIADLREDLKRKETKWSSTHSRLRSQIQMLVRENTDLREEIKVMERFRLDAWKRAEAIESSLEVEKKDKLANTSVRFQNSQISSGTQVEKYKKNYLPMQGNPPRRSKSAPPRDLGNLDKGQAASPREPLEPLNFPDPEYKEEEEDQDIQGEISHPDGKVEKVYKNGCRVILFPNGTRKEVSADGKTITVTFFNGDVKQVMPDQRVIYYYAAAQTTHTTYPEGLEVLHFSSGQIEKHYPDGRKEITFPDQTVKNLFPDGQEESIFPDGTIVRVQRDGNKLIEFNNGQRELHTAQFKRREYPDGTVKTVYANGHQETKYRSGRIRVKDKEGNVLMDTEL

Molecular target: GST_STIL-CR2 (UniProt Q15468)
Assay: pull-down

## His-MBP_CPAP-CP3 wild type (wt) (from UniProt Q9HC77 895-1338) (domain or fragment)
  binding: binds
